Measurements taken from the supplement of paper PMC4862054.
Most entries show no effect beyond the scatter of the controls.

Assays:
Assay in all cases: normalised response (% of control), CellTox Green; higher = less cell death (100 = DMSO, 0 = benzethonium chloride kill control)
Settings in all cases: incubation time: 72 h
BT-474 = tested on: BT-474
Experimental: (§1)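 DSRT, 72 h incubation, CellTox Green / CellTiter-Glo readout. Signal is normalised to DMSO and benzethonium chloride controls. Value is the normalised response at the lowest tested concentration.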

BT-549 = tested on: BT-549
Experimental: as §1

CAL-120 = tested on: CAL-120
Experimental: as §1

CAL-148 = tested on: CAL-148
Experimental: as §1

CAL-51 = tested on: CAL-51
Experimental: as §1

CAL-85-1 = tested on: CAL-85-1
Experimental: as §1

DU-4475 = tested on: DU-4475
Experimental: as §1

HCC1143 = tested on: HCC1143
Experimental: as §1

HCC1599 = tested on: HCC1599
Experimental: as §1

HCC1937 = tested on: HCC1937
Experimental: as §1

HDQ-P1 = tested on: HDQ-P1
Experimental: as §1

Hs578T = tested on: Hs578T
Experimental: as §1

MCF-10A = tested on: MCF-10A
Experimental: as §1

MDA-MB-231 = tested on: MDA-MB-231
Experimental: as §1

MDA-MB-436 = tested on: MDA-MB-436
Experimental: as §1

MDA-MB-453 = tested on: MDA-MB-453
Experimental: as §1

MDA-MB-468 = tested on: MDA-MB-468
Experimental: as §1

MFM-223 = tested on: MFM-223
Experimental: as §1

## COc1ccc(-c2cc3c(C)nc(N)nc3n([C@H]3CC[C@H](OCCO)CC3)c2=O)cn1 (1 nM)
BT-474
  normalised response: 91.2%
BT-549
  normalised response: 98.8%
CAL-120
  normalised response: 95.8%
CAL-148
  normalised response: 85%
CAL-51
  normalised response: 110%
CAL-85-1
  normalised response: 105%
DU-4475
  normalised response: 97.1%
HCC1143
  normalised response: 111%
HCC1599
  normalised response: 82.5%
HCC1937
  normalised response: 91.8%
HDQ-P1
  normalised response: 77%
Hs578T
  normalised response: 94.1%
MCF-10A
  normalised response: 103%
MDA-MB-231
  normalised response: 105%
MDA-MB-436
  normalised response: 78.6%
MDA-MB-453
  normalised response: 98%
MDA-MB-468
  normalised response: 55.4%
MFM-223
  normalised response: 82%

## Nc1ncnc2c1c(COc1cccc(Cl)c1)nn2C1CCOCC1 (1 nM)
BT-474
  normalised response: 101%
BT-549
  normalised response: 105%
CAL-120
  normalised response: 110%
CAL-148
  normalised response: 81%
CAL-51
  normalised response: 112%
CAL-85-1
  normalised response: 103%
DU-4475
  normalised response: 117%
HCC1143
  normalised response: 128%
HCC1599
  normalised response: 117%
HCC1937
  normalised response: 98%
HDQ-P1
  normalised response: 104%
Hs578T
  normalised response: 108%
MCF-10A
  normalised response: 74.4%
MDA-MB-231
  normalised response: 112%
MDA-MB-436
  normalised response: 91.9%
MDA-MB-453
  normalised response: 109%
MDA-MB-468
  normalised response: 75.9%
MFM-223
  normalised response: 106%

## O=C(Nc1c[nH]nc1-c1nc2ccc(CN3CCOCC3)cc2[nH]1)NC1CC1 [AT9283] (0.1 nM)
BT-474
  normalised response: 104%
BT-549
  normalised response: 100%
CAL-120
  normalised response: -16.4%
CAL-148
  normalised response: 86.5%
CAL-51
  normalised response: 113%
CAL-85-1
  normalised response: 93.6%
DU-4475
  normalised response: 99.1%
HCC1143
  normalised response: 112%
HCC1599
  normalised response: 104%
HCC1937
  normalised response: 104%
HDQ-P1
  normalised response: 96.8%
Hs578T
  normalised response: 101%
MCF-10A
  normalised response: 99.5%
MDA-MB-436
  normalised response: 95.7%
MDA-MB-453
  normalised response: 117%
MDA-MB-468
  normalised response: 125%
MFM-223
  normalised response: 101%

## CC(C)(C)c1nc(-c2cccc(NS(=O)(=O)c3c(F)cccc3F)c2F)c(-c2ccnc(N)n2)s1 [Dabrafenib] (0.25 nM)
BT-474
  normalised response: 99.9%
BT-549
  normalised response: 100%
CAL-120
  normalised response: 106%
CAL-51
  normalised response: 106%
CAL-85-1
  normalised response: 99%
DU-4475
  normalised response: 110%
HCC1143
  normalised response: 103%
HCC1599
  normalised response: 113%
HCC1937
  normalised response: 116%
Hs578T
  normalised response: 113%
MCF-10A
  normalised response: 102%
MDA-MB-231
  normalised response: 111%
MDA-MB-436
  normalised response: 102%
MDA-MB-453
  normalised response: 108%
MDA-MB-468
  normalised response: 111%
MFM-223
  normalised response: 106%

## CCc1cnn2c(NCc3ccc[n+]([O-])c3)cc(N3CCCC[C@H]3CCO)nc12 [Dinaciclib] (0.1 nM)
BT-474
  normalised response: 98.8%
BT-549
  normalised response: 92.6%
CAL-120
  normalised response: 107%
CAL-148
  normalised response: 85.3%
CAL-51
  normalised response: 90.8%
CAL-85-1
  normalised response: 97.3%
DU-4475
  normalised response: 109%
HCC1143
  normalised response: 127%
HCC1599
  normalised response: 113%
HCC1937
  normalised response: 115%
HDQ-P1
  normalised response: 87.9%
Hs578T
  normalised response: 115%
MCF-10A
  normalised response: 111%
MDA-MB-231
  normalised response: 120%
MDA-MB-436
  normalised response: 90%
MDA-MB-453
  normalised response: 102%
MDA-MB-468
  normalised response: 86.5%
MFM-223
  normalised response: 79.9%

## CO[C@H]1C[C@@H]2CC[C@@H](C)[C@@](O)(O2)C(=O)C(=O)N2CCCC[C@H]2C(=O)O[C@H]([C@H](C)C[C@@H]2CC[C@@H](OCCO)[C@H](OC)C2)CC(=O)[C@H](C)/C=C(\C)[C@@H](O)[C@@H](OC)C(=O)[C@H](C)C[C@H](C)/C=C/C=C/C=C/1C [Everolimus] (0.01 nM)
BT-474
  normalised response: 99.3%
BT-549
  normalised response: 98.6%
CAL-120
  normalised response: 101%
CAL-148
  normalised response: 98.9%
CAL-51
  normalised response: 122%
CAL-85-1
  normalised response: 93.7%
DU-4475
  normalised response: 95.5%
HCC1143
  normalised response: 104%
HCC1599
  normalised response: 85.7%
HCC1937
  normalised response: 76.5%
HDQ-P1
  normalised response: 86.4%
Hs578T
  normalised response: 77.7%
MCF-10A
  normalised response: 71%
MDA-MB-231
  normalised response: 92.3%
MDA-MB-436
  normalised response: 90%
MDA-MB-453
  normalised response: 105%
MDA-MB-468
  normalised response: 92.8%
MFM-223
  normalised response: 100%

## O=c1[nH]cc(F)c(=O)[nH]1 [Fluorouracil] (1 nM)
BT-474
  normalised response: 101%
BT-549
  normalised response: 100%
CAL-120
  normalised response: 97.3%
CAL-51
  normalised response: 116%
CAL-85-1
  normalised response: 96.9%
DU-4475
  normalised response: 108%
HCC1143
  normalised response: 119%
HCC1599
  normalised response: 114%
HCC1937
  normalised response: 84.4%
HDQ-P1
  normalised response: 53.3%
Hs578T
  normalised response: 91.3%
MCF-10A
  normalised response: 103%
MDA-MB-231
  normalised response: 115%
MDA-MB-436
  normalised response: 102%
MDA-MB-453
  normalised response: 106%
MDA-MB-468
  normalised response: 56.9%
MFM-223
  normalised response: 88.4%

## COc1cc2c(Oc3ccc(NC(=O)C4(C(=O)Nc5ccc(F)cc5)CC4)cc3F)ccnc2cc1OCCCN1CCOCC1 [Foretinib] (0.1 nM)
BT-474
  normalised response: 101%
BT-549
  normalised response: 96.1%
CAL-120
  normalised response: 100%
CAL-148
  normalised response: 83.9%
CAL-51
  normalised response: 98.8%
CAL-85-1
  normalised response: 105%
DU-4475
  normalised response: 99.2%
HCC1143
  normalised response: 111%
HCC1599
  normalised response: 103%
HCC1937
  normalised response: 93%
HDQ-P1
  normalised response: 104%
Hs578T
  normalised response: 99.2%
MCF-10A
  normalised response: 104%
MDA-MB-231
  normalised response: 74.6%
MDA-MB-436
  normalised response: 72.6%
MDA-MB-453
  normalised response: 99.2%
MDA-MB-468
  normalised response: 107%
MFM-223
  normalised response: 105%

## CC[C@H](Nc1ncnc2[nH]cnc12)c1nc2cccc(F)c2c(=O)n1-c1ccccc1 [GS-1101] (1 nM)
BT-474
  normalised response: 92%
BT-549
  normalised response: 100%
CAL-120
  normalised response: 99.8%
CAL-148
  normalised response: 100%
CAL-51
  normalised response: 104%
CAL-85-1
  normalised response: 105%
DU-4475
  normalised response: 95.7%
HCC1143
  normalised response: 112%
HCC1599
  normalised response: 96.5%
HDQ-P1
  normalised response: 81.1%
Hs578T
  normalised response: 104%
MCF-10A
  normalised response: 92.9%
MDA-MB-436
  normalised response: 83.8%
MDA-MB-453
  normalised response: 102%
MDA-MB-468
  normalised response: 84.9%
MFM-223
  normalised response: 97.6%

## O=NN(CCCl)C(=O)NC1CCCCC1 [Lomustine] (1 nM)
BT-474
  normalised response: 98.5%
BT-549
  normalised response: 71.6%
CAL-120
  normalised response: 101%
CAL-148
  normalised response: 90%
CAL-51
  normalised response: 103%
CAL-85-1
  normalised response: 101%
DU-4475
  normalised response: 101%
HCC1143
  normalised response: 63.5%
HCC1599
  normalised response: 102%
HCC1937
  normalised response: 93.6%
HDQ-P1
  normalised response: 76.1%
Hs578T
  normalised response: 93.7%
MCF-10A
  normalised response: 107%
MDA-MB-231
  normalised response: 74%
MDA-MB-436
  normalised response: 90.6%
MDA-MB-453
  normalised response: 73.2%
MDA-MB-468
  normalised response: 59.5%

## Cn1cnc2c(F)c(Nc3ccc(Br)cc3F)c(C(=O)NOCCO)cc21 [MEK-162] (0.1 nM)
BT-474
  normalised response: 100%
BT-549
  normalised response: 66.8%
CAL-120
  normalised response: 99.8%
CAL-148
  normalised response: 102%
CAL-51
  normalised response: 112%
CAL-85-1
  normalised response: 99.3%
DU-4475
  normalised response: 101%
HCC1143
  normalised response: 80.6%
HCC1599
  normalised response: 98%
HCC1937
  normalised response: 108%
Hs578T
  normalised response: 106%
MCF-10A
  normalised response: 95.6%
MDA-MB-231
  normalised response: 84.3%
MDA-MB-436
  normalised response: 90.7%
MDA-MB-453
  normalised response: 99.6%
MDA-MB-468
  normalised response: 122%
MFM-223
  normalised response: 99.4%

## N#CCNC(=O)c1ccc(-c2ccnc(Nc3ccc(N4CCOCC4)cc3)n2)cc1 [Momelotinib] (1 nM)
BT-474
  normalised response: 93.8%
BT-549
  normalised response: 83.5%
CAL-120
  normalised response: 101%
CAL-148
  normalised response: 101%
CAL-51
  normalised response: 106%
CAL-85-1
  normalised response: 101%
DU-4475
  normalised response: 97.6%
HCC1143
  normalised response: 98.2%
HCC1599
  normalised response: 100%
HCC1937
  normalised response: 102%
HDQ-P1
  normalised response: 103%
MCF-10A
  normalised response: 92.8%
MDA-MB-231
  normalised response: 101%
MDA-MB-436
  normalised response: 87.4%
MDA-MB-453
  normalised response: 95.1%
MDA-MB-468
  normalised response: 112%
MFM-223
  normalised response: 89.4%
